Results deposited as PubChem BioAssay AID1224830 (NIAID, 2016).

Purpose: 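Regulators of TLR4 signalling towards TNF-alpha in macrophage-like cells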 (primary screen)
Cell system: human THP-1 monocytic leukaemia cells, TNF dual-luciferase reporter clone, PMA-differentiated to macrophage-like cells
Reagent: siRNA pool against human genes, 50 nM
Timing: LPS for 4 h, given about 3 days after siRNA transfection
Treatment: bacterial LPS (TLR4 ligand), 10 ng/ml
Measurement: 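TNF firefly reporter luminescence divided by renilla, normalised to the plate median, then turned into a robust z-score for each replicate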
Scale: TNF reporter robust z-score: higher = stronger TNF reporter response to LPS
Rule for the call: 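a well is active when its z-score exceeds 2.8 or falls below -1.5; control wells carry no call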
The deposit covers about 18,000 reagents; shown is a random part of them. In the full data, about 2,900 (16%) were called active. 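Calls are made per well; low scores hint the gene aids the LPS response, high scores that it dampens it.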 Repeated entries: four replicate wells of each siRNA pool.

gene knocked down	TNF reporter robust z-score	call
BNIP2 (BCL2 interacting protein 2)	-0.19	inactive
BNIP2 (BCL2 interacting protein 2)	-1.19	inactive
BNIP2 (BCL2 interacting protein 2)	-0.59	inactive
BNIP2 (BCL2 interacting protein 2)	-0.45	inactive
ADGRF2P (adhesion G protein-coupled receptor F2, pseudogene)	-0.16	inactive
ADGRF2P (adhesion G protein-coupled receptor F2, pseudogene)	-0.28	inactive
ADGRF2P (adhesion G protein-coupled receptor F2, pseudogene)	0.77	inactive
ADGRF2P (adhesion G protein-coupled receptor F2, pseudogene)	1.46	inactive
PRDX1 (peroxiredoxin 1)	0.96	inactive
PRDX1 (peroxiredoxin 1)	0.29	inactive
PRDX1 (peroxiredoxin 1)	1.03	inactive
PRDX1 (peroxiredoxin 1)	1.89	inactive
CLIC5 (CLIC family member 5)	0.28	inactive
CLIC5 (CLIC family member 5)	0.41	inactive
CLIC5 (CLIC family member 5)	-0.52	inactive
CLIC5 (CLIC family member 5)	-0.74	inactive
POC5 (POC5 centriolar protein)	2.34	inactive
POC5 (POC5 centriolar protein)	2.15	inactive
POC5 (POC5 centriolar protein)	0.07	inactive
POC5 (POC5 centriolar protein)	0.04	inactive
KCNMB1	2.54	inactive
KCNMB1	0.63	inactive
KCNMB1	0.01	inactive
KCNMB1	-0.67	inactive
C1orf115 (chromosome 1 open reading frame 115)	0.8	inactive
C1orf115 (chromosome 1 open reading frame 115)	2.98	active
C1orf115 (chromosome 1 open reading frame 115)	1.13	inactive
C1orf115 (chromosome 1 open reading frame 115)	1.84	inactive
ANKRD24 (ankyrin repeat domain 24)	0.45	inactive
ANKRD24 (ankyrin repeat domain 24)	-0.07	inactive
ANKRD24 (ankyrin repeat domain 24)	2.07	inactive
ANKRD24 (ankyrin repeat domain 24)	2.34	inactive
TAS2R13 (taste 2 receptor member 13)	0.32	inactive
TAS2R13 (taste 2 receptor member 13)	1.23	inactive
TAS2R13 (taste 2 receptor member 13)	0.97	inactive
TAS2R13 (taste 2 receptor member 13)	1.27	inactive
WDR91 (WD repeat domain 91)	-1.64	active
WDR91 (WD repeat domain 91)	-1.15	inactive
WDR91 (WD repeat domain 91)	-1.18	inactive
WDR91 (WD repeat domain 91)	-1.28	inactive
TFAP2C (transcription factor AP-2 gamma)	-0.47	inactive
TFAP2C (transcription factor AP-2 gamma)	0.13	inactive
TFAP2C (transcription factor AP-2 gamma)	-0.54	inactive
TFAP2C (transcription factor AP-2 gamma)	-0.08	inactive
CHST15 (carbohydrate sulfotransferase 15)	0.27	inactive
CHST15 (carbohydrate sulfotransferase 15)	0.17	inactive
CHST15 (carbohydrate sulfotransferase 15)	2	inactive
CHST15 (carbohydrate sulfotransferase 15)	2.16	inactive
BMPR2 (bone morphogenetic protein receptor type 2)	1.59	inactive
BMPR2 (bone morphogenetic protein receptor type 2)	1.31	inactive
BMPR2 (bone morphogenetic protein receptor type 2)	-0.79	inactive
BMPR2 (bone morphogenetic protein receptor type 2)	-0.33	inactive
DPY19L2 (dpy-19 like 2)	-0.08	inactive
DPY19L2 (dpy-19 like 2)	0.34	inactive
DPY19L2 (dpy-19 like 2)	-0.1	inactive
DPY19L2 (dpy-19 like 2)	-1.21	inactive
NUDT2 (nudix hydrolase 2)	-0.55	inactive
NUDT2 (nudix hydrolase 2)	0.52	inactive
NUDT2 (nudix hydrolase 2)	-0.09	inactive
NUDT2 (nudix hydrolase 2)	-0.51	inactive
WNT2B (Wnt family member 2B)	0.54	inactive
WNT2B (Wnt family member 2B)	0.93	inactive
WNT2B (Wnt family member 2B)	-0.57	inactive
WNT2B (Wnt family member 2B)	0.37	inactive
CYP24A1 (cytochrome P450 family 24 subfamily A member 1)	-0.83	inactive
CYP24A1 (cytochrome P450 family 24 subfamily A member 1)	-0.87	inactive
CYP24A1 (cytochrome P450 family 24 subfamily A member 1)	-0.75	inactive
CYP24A1 (cytochrome P450 family 24 subfamily A member 1)	-0.63	inactive
FBXO2 (F-box protein 2)	1.82	inactive
FBXO2 (F-box protein 2)	2.86	active
FBXO2 (F-box protein 2)	2.97	active
FBXO2 (F-box protein 2)	5.7	active
NFRKB (nuclear factor related to kappaB binding protein)	1.17	inactive
NFRKB (nuclear factor related to kappaB binding protein)	1.56	inactive
NFRKB (nuclear factor related to kappaB binding protein)	-0.36	inactive
NFRKB (nuclear factor related to kappaB binding protein)	1.23	inactive
TINAG (tubulointerstitial nephritis antigen)	0.36	inactive
TINAG (tubulointerstitial nephritis antigen)	-0.01	inactive
TINAG (tubulointerstitial nephritis antigen)	1.55	inactive
TINAG (tubulointerstitial nephritis antigen)	0.41	inactive

Active calls, among the entries above:
gene knocked down	TNF reporter robust z-score	call
C1orf115 (chromosome 1 open reading frame 115)	2.98	active
WDR91 (WD repeat domain 91)	-1.64	active
FBXO2 (F-box protein 2)	2.86	active
FBXO2 (F-box protein 2)	2.97	active
FBXO2 (F-box protein 2)	5.7	active

Next reagents follow:
gene knocked down	TNF reporter robust z-score	call
HS3ST5 (heparan sulfate-glucosamine 3-sulfotransferase 5)	-1.55	active
HS3ST5 (heparan sulfate-glucosamine 3-sulfotransferase 5)	-0.09	inactive
HS3ST5 (heparan sulfate-glucosamine 3-sulfotransferase 5)	0.09	inactive
HS3ST5 (heparan sulfate-glucosamine 3-sulfotransferase 5)	0.11	inactive
CCDC124 (coiled-coil domain containing 124)	-0.1	inactive
CCDC124 (coiled-coil domain containing 124)	0.3	inactive
CCDC124 (coiled-coil domain containing 124)	-0.84	inactive
FILIP1 (filamin A interacting protein 1)	-0.55	inactive
FILIP1 (filamin A interacting protein 1)	0.56	inactive
FILIP1 (filamin A interacting protein 1)	1.41	inactive
FILIP1 (filamin A interacting protein 1)	0.51	inactive
PELO (pelota mRNA surveillance and ribosome rescue factor)	-1.19	inactive
PELO (pelota mRNA surveillance and ribosome rescue factor)	-0.7	inactive
PELO (pelota mRNA surveillance and ribosome rescue factor)	-0.8	inactive
PELO (pelota mRNA surveillance and ribosome rescue factor)	0.42	inactive
IRF9 (interferon regulatory factor 9)	-1.83	active
IRF9 (interferon regulatory factor 9)	-1.88	active
IRF9 (interferon regulatory factor 9)	-1.85	active
IRF9 (interferon regulatory factor 9)	-1.66	active
CCDC60 (coiled-coil domain containing 60)	-0.81	inactive
CCDC60 (coiled-coil domain containing 60)	-0.41	inactive
CCDC60 (coiled-coil domain containing 60)	-0.5	inactive
CCDC60 (coiled-coil domain containing 60)	-0.6	inactive
CBLB (Cbl proto-oncogene B)	0.87	inactive
CBLB (Cbl proto-oncogene B)	-0.56	inactive
CBLB (Cbl proto-oncogene B)	-0.71	inactive
CBLB (Cbl proto-oncogene B)	-0.42	inactive
SIKE1 (suppressor of IKBKE 1)	1.42	inactive
SIKE1 (suppressor of IKBKE 1)	0.93	inactive
SIKE1 (suppressor of IKBKE 1)	1.41	inactive
SIKE1 (suppressor of IKBKE 1)	1.2	inactive
TMEM255B (transmembrane protein 255B)	1.07	inactive
TMEM255B (transmembrane protein 255B)	2.15	inactive
TMEM255B (transmembrane protein 255B)	1.45	inactive
TMEM255B (transmembrane protein 255B)	2.06	inactive
TCP11L2 (t-complex 11 like 2)	-0.58	inactive
TCP11L2 (t-complex 11 like 2)	-0.59	inactive
TCP11L2 (t-complex 11 like 2)	-1.32	inactive
TCP11L2 (t-complex 11 like 2)	-0.25	inactive
LEPR (leptin receptor)	0.03	inactive
LEPR (leptin receptor)	-0.11	inactive
LEPR (leptin receptor)	-0.6	inactive
LEPR (leptin receptor)	-0.67	inactive
EDC4 (enhancer of mRNA decapping 4)	-0.16	inactive
EDC4 (enhancer of mRNA decapping 4)	0.42	inactive
EDC4 (enhancer of mRNA decapping 4)	0.51	inactive
EDC4 (enhancer of mRNA decapping 4)	-0.38	inactive
SYAP1 (synapse associated protein 1)	-0.41	inactive
SYAP1 (synapse associated protein 1)	0.95	inactive
SYAP1 (synapse associated protein 1)	1.3	inactive
SYAP1 (synapse associated protein 1)	0.05	inactive
PDHB (pyruvate dehydrogenase E1 subunit beta)	3.78	active
PDHB (pyruvate dehydrogenase E1 subunit beta)	1.58	inactive
PDHB (pyruvate dehydrogenase E1 subunit beta)	0.35	inactive
PDHB (pyruvate dehydrogenase E1 subunit beta)	2.53	inactive
DNMT3B (DNA methyltransferase 3 beta)	-0.45	inactive
DNMT3B (DNA methyltransferase 3 beta)	-0.31	inactive
DNMT3B (DNA methyltransferase 3 beta)	-0.33	inactive
DNMT3B (DNA methyltransferase 3 beta)	0.26	inactive
CINP (cyclin dependent kinase 2 interacting protein)	-1.74	active
CINP (cyclin dependent kinase 2 interacting protein)	-2.02	active
CINP (cyclin dependent kinase 2 interacting protein)	-1.89	active
CINP (cyclin dependent kinase 2 interacting protein)	-1.94	active
